The values are deposited in ChEMBL (CHEMBL3988442, “University of Dundee, Small-Polar-MMV Screening Library” (2021)).

Results are given as percent effect.
How 0% and 100% were set is not recorded. Most values in the screen are low, and negative values occur.
This is an unselected part of the compounds tested.
Two or more numbers in one place are separate tests of the same structure; such repeats can differ widely.

A: 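Growth of Mycobacterium tuberculosis over 3 days (7H9 medium with glucose and tyloxapol); the read-out is not stated. Compounds at 50 µM. The record gives no direction; compounds that gave an IC50 in retests scored well above the rest, so higher reads as more growth inhibition. About 69,000 compounds were tested under these conditions; 1.1% (about 760) showed 50% or more at least once.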
B: 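Phenotypic screen: M. tuberculosis growth, cholesterol and DPPC medium, 4 days; the read-out is not stated. Tested at 50 µM. Higher reads as more growth inhibition (inferred: compounds with an IC50 in retests scored well above the rest). Of about 69,000 compounds tested this way, about 370 (0.54%) reached 50% or more in at least one test.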

| Compound | A | B |
|---|---|---|
| `[H][C@@]12C[C@H](C(=O)NCC(C)C)[C@@]([H])(CN(c3ncc(CC)cn3)C1)O2` | 9.196 & 1.312 | 4.49 |
| `N#Cc1ccnc(N2CCN(CC(O)c3ccccc3Cl)CC2)c1` (stereo not given) | -0.144 | -14.45 |
| `Cc1nc(C)c(C(=O)N2CCCC2c2nnc3n2CCCCC3)s1` (stereo not given) | 13.21 | 4.177 & -9.536 |
| `CCN1CCN(C(=O)C2CCCc3[nH]ncc32)CC1` (stereo not given) | -41.09 | -30.51 |
| `CO[C@H]1CN(Cc2cc(Cn3cncn3)c(C)cc2C)CC[C@H]1N` | -41.02 | -7.671 & -8.379 |
| `COc1ccc(C2SC(C)=Nc3c2c(=O)[nH]n3C2CCCCC2)cc1O` (stereo not given) | -0.3811 | -19.18 |
| `COCCC1(CO)CCCN(C(=O)c2cccnc2O)C1` (stereo not given) | 4.213 | 3.827 |
| `Cn1ccc2ccnc(CC3CN(C(=O)C4CCC(F)(F)CC4)C3)c21` | 17.45 | -3.125 |
| `CC(C)C(=O)N1CCC2(CCCN(CCOc3ccccc3)C2)C1` (stereo not given) | 18.78 | 38.51 |
| `OC(COCc1ccccc1F)CN1CCc2c(ncn2C2CC2)C1` (stereo not given) | 2.417 | 23.29 |
| `Cc1cc(C2CCCN2CC(=O)N(CCC#N)c2ccccc2F)on1` (stereo not given) | 1.515 | -8.568 |
| `O=C(CCCNc1ncccn1)N1CCCC(n2cccn2)C1` (stereo not given) | -22.91 | -15.83 |
| `C=C(C)COc1cccc(C(=O)N(C)Cc2cc(CC)no2)c1` | 15 | 19.98 |
| `CCS(=O)(=O)N1CCC2(C1)C(=O)N(C)CCN2Cc1ccncc1.O=C(O)C(F)(F)F.O=C(O)C(F)(F)F` (stereo not given) | -2.978 & 0.2292 | -0.6284 |
| `CC(NC(=O)NCc1cccs1)c1ccc2c(c1)CCC(=O)N2` (stereo not given) | 25.23 | 13.21 |
| `CCn1nccc1CNc1nc(N)nc2c1nc(C)n2C` | -47.2 | -35.85 |
| `Cc1ccc(C(=O)NC2CCN(S(C)(=O)=O)CC2)c(=O)[nH]1` | -6.628 | -11.93 |
| `c1ccc2cc(OCCN3CCn4c(nnc4C4CC4)C3)ccc2c1` | -1.383 | -24.88 |
| `CCn1ccnc1CN(C)c1cc(C2CCCNC2)nc(C)n1` (stereo not given) | 6.209 | -3.116 & -10.98 |
| `Cc1occc1C(=O)N1CCCN(Cc2nccn2C(C)C)CC1` | 6.792 | -14.38 |
| `O=C1CC(c2ccccc2F)c2c(n(C3CCCC3)[nH]c2=O)N1` (stereo not given) | 21.32 | -14.1 |
| `CCC1C(=O)NCCN1c1ccnc(C(C)(C)C)n1` (stereo not given) | 8.281 | 9.337 |
| `CC(C)(C(=O)NCCS(N)(=O)=O)c1cccc(Br)c1` | -10.58 & -4.424 | 1.436 |
| `COc1ccccc1C(=O)N1CC(Cc2nccc3ccn(C)c23)C1` | -9.853 | -6.024 |
| `Cc1nn(C)c(C)c1C1CCCN1C(=O)c1ccnc(N(C)C)c1` (stereo not given) | 9.67 | 1.195 |
| `COCC(=O)N1CCCN(Cc2cc(O)c3ccccc3n2)CC1` | -21.02 | -11.21 & -8.621 |
| `O=C(O)C(F)(F)F.O=C(O)C(F)(F)F.O=C(O)C(F)(F)F.[H][C@@]12C[C@@H](Oc3cccnc3)CN1CCN(C(=O)c1ccc(C)nc1)C2` | 25.55 | -1.013 |
| `COc1ccccc1C(C)CC(=O)N1CCCS1(=O)=O` (stereo not given) | 5.937 | -15.93 |
| `CCc1nc(C)c(CC(=O)N2CCC3(CC2)OCCCC3OC)c(=O)[nH]1` (stereo not given) | 22.56 | 8.559 |
| `O=C(O)C(F)(F)F.O=C(O)C(F)(F)F.[H][C@]12CCN(C(=O)c3cccs3)C[C@@]1([H])OCCN(CCN(C)C)C2` | -17.83 | -13.48 |
| `Cn1cc(C(=O)N2CCC(c3nccn3Cc3ccncc3)CC2)cn1` | -7.743 | -6.625 & -7.258 |
| `CCCc1noc(CCC(=O)Nc2cc(C(F)(F)F)c[nH]c2=O)n1` | -31.66 | -18.75 |
| `Cn1ccnc1CN1CCc2ncnc(N3CCCC(C#N)C3)c2CC1` (stereo not given) | 5.156 | -14.67 |
| `Cc1ccc(-c2nc(CN(Cc3cccs3)C3CCS(=O)(=O)C3)cs2)o1` (stereo not given) | -32.36 | 13.1 |
| `CCc1nc(COc2ccc(OCc3cnn(C)c3)cc2)no1` | 26.43 | 27.52 |
| `Cn1cccc1CNC(=O)CCCc1nnc2ccccn12` | 1.325 | -4.147 |
| `O=C(NCC1CC1)C1CCC2(CCN(C(=O)c3ccncc3)CC2)O1.O=C(O)C(F)(F)F` (stereo not given) | -31 | -4.089 & 7.85 |
| `Cc1ccccc1C(NC(=O)NCC1(CO)CC1)C1CC1` (stereo not given) | -3.686 | -15.88 |
| `CC1CN(CC(=O)Nc2cccnc2)CCN1c1nccs1` (stereo not given) | 19.87 | -7.775 |
| `O=C(O)C(F)(F)F.O=C(O)C(F)(F)F.[H][C@]12CCN(C(C)C)C[C@@]1([H])CN(Cc1cccnc1OC)C2` | 10.22 | -7.366 |
| `O=C1NC2(CCc3ccccc31)CCN(Cc1cccnc1)C2` (stereo not given) | -7.269 | -4.598 & 1.747 |
| `Cc1cc(CNC(=O)c2cn(CCC3CCCCN3)nn2)on1` (stereo not given) | -18.55 | 8.968 & -15.09 |
| `O=C(O)C(F)(F)F.O=C(O)C(F)(F)F.[H][C@]12C[C@@H](Cn3cncn3)N(C(C)=O)[C@@]1([H])CCN(Cc1cccnc1)C2` | -8.491 & 0.039 | 6.148 |
| `Cc1n[nH]c(C)c1C1CCCN1C(=O)NCC(=O)Nc1ccccc1` (stereo not given) | 22.55 | 23.44 |
| `O=C(O)C(F)(F)F.O=C(O)C(F)(F)F.O=C(O)C(F)(F)F.[H][C@@]12CCCO[C@]1([H])[C@H](N1CCN(C)CC1)CN2Cc1cc(C)c(C)o1` | 9.003 & 19.01 | -0.25 & 11.19 |
| `CN(C)CCOCC1CN(Cc2ccsc2)Cc2nnn(C)c21.O=C(O)C(F)(F)F.O=C(O)C(F)(F)F` (stereo not given) | -46.97 | -29.93 |
| `CCc1ccc(CN2CCC3(CC2)C(=O)N(C)CCN3CC)cc1` | -21.98 | -4.586 |
| `CCOC(=O)N1CCCC2(CCCNC2)C1.Cl` (stereo not given) | 13.96 | 12.02 |
| `O=C1CC(N(C(=O)CCc2cc(F)ccc2F)C2CC2)C(=O)N1` (stereo not given) | -3.89 | -25.75 |
| `COc1c(NS(=O)(=O)c2cc(C)ccc2C)c(C)nn1C` | 9.744 | -11.5 |
| `Cc1ccc(CN2Cc3c(cnn3C)C(COCC3CC3)C2)s1` (stereo not given) | 22.84 | -16.52 |
| `CCOCCNC(=O)Nc1ccc(OCc2noc(C3CC3)n2)cc1` | 80.04 & -9.059 | -3.652 |
| `CCc1ccc(-n2c(=O)[nH]c3nc(N4CCSCC4)ncc3c2=O)cc1` | -0.5295 & 1.014 | -13.93 |
| `O=C(CN1CCC(c2nnc(C(F)(F)F)o2)CC1)Nc1cccnc1` | 8.884 | -2.92 |
| `O=C(CN1CCOCC1)Nc1ccc(C(F)(F)F)cc1Cl` | 1.01 & 10.99 | -52.44 |
| `Cc1nc(-c2cccnc2)ncc1C(=O)N1CCC(C(C)N(C)C)CC1` (stereo not given) | 5.581 | -9.976 |
| `CS(=O)(=O)Nc1ccn(Cc2cccc(Cl)c2)n1` | 10.17 | 12 |
| `CS(=O)(=O)CCCN1CCN(C(C#N)c2ccccc2)CC1` (stereo not given) | 19.36 | -2.191 |
| `CC(C)C(C)(C#N)NC(=O)Cn1cc(-c2ccccc2)cn1` (stereo not given) | 5.759 | -2.804 & -2.428 |
| `Cc1cc(C[C@@H]2CCC[C@H]2NCc2cccc(F)c2F)on1.O=C(O)CC(O)(CC(=O)O)C(=O)O` | 19.73 | 7.881 |
| `COCCN1CCC2(CCN(C(=O)c3ccc(F)cc3)CC2)C1=O` | -3.114 | -4.011 & -0.768 |
| `NC(=O)c1cc(-c2cccc(C(=O)O)c2)cs1` | 20.57 | 9.205 |
| `CCC(=O)N1CCC(c2nc(N3CCOCC3)ncc2S(C)(=O)=O)CC1` | 10.3 | 3.87 & 0.8103 |
| `CN(C)C(=O)c1nc(-c2ccc(S(C)(=O)=O)cc2)c2cnccn12` | -3.599 | -26.6 |

For reference, 7 entries once more:

{"compound": "O=C(O)C(F)(F)F.O=C(O)C(F)(F)F.[H][C@]12CCN(C(C)C)C[C@@]1([H])CN(Cc1cccnc1OC)C2", "A": 10.22, "B": -7.366}
{"compound": "O=C(CN1CCC(c2nnc(C(F)(F)F)o2)CC1)Nc1cccnc1", "A": 8.884, "B": -2.92}
{"compound": "CCOCCNC(=O)Nc1ccc(OCc2noc(C3CC3)n2)cc1", "A": "80.04 & -9.059", "B": -3.652}
{"compound": "Cc1nc(-c2cccnc2)ncc1C(=O)N1CCC(C(C)N(C)C)CC1", "stereo": "stereo not given", "A": 5.581, "B": -9.976}
{"compound": "CC(C)C(C)(C#N)NC(=O)Cn1cc(-c2ccccc2)cn1", "stereo": "stereo not given", "A": 5.759, "B": "-2.804 & -2.428"}
{"compound": "CCC1C(=O)NCCN1c1ccnc(C(C)(C)C)n1", "stereo": "stereo not given", "A": 8.281, "B": 9.337}
{"compound": "Cn1cc(C(=O)N2CCC(c3nccn3Cc3ccncc3)CC2)cn1", "A": -7.743, "B": "-6.625 & -7.258"}